According to US20090181898A1, “ABUSE-RESISTANT A[…]” (SHIRE LLC, priority 2002, published 2009):
“And” between values parts separate entries of the source, which are not always exact repeats. Identical values can stand only once. The source gives many values for each of these; only a part stands here.

Assay: Clinical pharmacokinetics, 25 and 75 mg, compared to Adderall XR and Dexedrine Spansule
Details: human, individual subjects

For `CC(Cc1ccccc1)NC(=O)C(N)CCCCN` [L-lysine-d-amphetamine, 2,6-diaminohexanoic acid-(1-methyl-2-phenylethyl)-amide], the “L-lysine-d-amphetamine intact conjugate concentration” value (oral 25 mg L-lysine-d-amphetamine, 0 h) was 0 ng/mL, the “L-lysine-d-amphetamine intact conjugate concentration” value (oral 25 mg L-lysine-d-amphetamine, 0.5 h) was 4.1 ng/mL and 0.0 ng/mL (3×) and 5.5 ng/mL and 10.0 ng/mL and 3.6 ng/mL and 9.2 ng/mL and 9.6 ng/mL and 8.9 ng/mL and the “L-lysine-d-amphetamine intact conjugate concentration” value (oral 25 mg L-lysine-d-amphetamine, 16 h) was 0 ng/mL. The “L-lysine-d-amphetamine intact conjugate concentration” value (oral 25 mg L-lysine-d-amphetamine, 24 h) was 0 ng/mL, the “L-lysine-d-amphetamine intact conjugate concentration” value (oral 25 mg L-lysine-d-amphetamine, 48 h) was 0 ng/mL and the “L-lysine-d-amphetamine intact conjugate concentration” value (oral 25 mg L-lysine-d-amphetamine, 72 h) was 0 ng/mL. The “L-lysine-d-amphetamine intact conjugate concentration” value (oral 75 mg L-lysine-d-amphetamine, 0 h) was 0 ng/mL, the “L-lysine-d-amphetamine intact conjugate concentration” value (oral 75 mg L-lysine-d-amphetamine, 0.5 h) was 10.4 ng/mL and 35.5 ng/mL and 22.6 ng/mL and 6.92 ng/mL and 10.3 ng/mL and 0 ng/mL and 9.21 ng/mL and 7.88 ng/mL and 14.5 ng/mL and 87.8 ng/mL and the “L-lysine-d-amphetamine intact conjugate concentration” value (oral 75 mg L-lysine-d-amphetamine, 1 h) was 48 ng/mL and 80.1 ng/mL and 40.5 ng/mL and 29 ng/mL and 41.5 ng/mL and 21.2 ng/mL and 30.8 ng/mL and 23.4 ng/mL and 127 ng/mL and 88.9 ng/mL. For the same molecule, the “L-lysine-d-amphetamine intact conjugate concentration” value (oral 75 mg L-lysine-d-amphetamine, 2 h) was 8.87 ng/mL and 11.3 ng/mL and 5.53 ng/mL and 4.91 ng/mL and 9 ng/mL and 18.1 ng/mL and 5.62 ng/mL and 6.29 ng/mL and 12.1 ng/mL and 9.75 ng/mL, the “L-lysine-d-amphetamine intact conjugate concentration” value (oral 75 mg L-lysine-d-amphetamine, 3 h) was 2.15 ng/mL and 1.73 ng/mL (2×) and 1.29 ng/mL and 1.76 ng/mL and 1.82 ng/mL and 10.6 ng/mL and 0 ng/mL and 2.31 ng/mL and 2.57 ng/mL and the “L-lysine-d-amphetamine intact conjugate concentration” value (oral 75 mg L-lysine-d-amphetamine, 4 h) was 0 ng/mL (6×) and 1.09 ng/mL and 4.65 ng/mL and 1.53 ng/mL and 1.01 ng/mL. For the same molecule, the “L-lysine-d-amphetamine intact conjugate concentration” value (oral 75 mg L-lysine-d-amphetamine, 5 h) was 0 ng/mL, the “L-lysine-d-amphetamine intact conjugate concentration” value (oral 75 mg L-lysine-d-amphetamine, 6 h) was 0 ng/mL and the “L-lysine-d-amphetamine intact conjugate concentration” value (oral 75 mg L-lysine-d-amphetamine, 7 h) was 0 ng/mL. For the same molecule, the “L-lysine-d-amphetamine intact conjugate concentration” value (oral 75 mg L-lysine-d-amphetamine, 8 h) was 0 ng/mL, the “L-lysine-d-amphetamine intact conjugate concentration” value (oral 75 mg L-lysine-d-amphetamine, 10 h) was 0 ng/mL and the “L-lysine-d-amphetamine intact conjugate concentration” value (oral 75 mg L-lysine-d-amphetamine, 12 h) was 0 ng/mL. For the same molecule, the “L-lysine-d-amphetamine intact conjugate concentration” value (oral 75 mg L-lysine-d-amphetamine, 16 h) was 0 ng/mL, the “L-lysine-d-amphetamine intact conjugate concentration” value (oral 75 mg L-lysine-d-amphetamine, 24 h) was 0 ng/mL and the “L-lysine-d-amphetamine intact conjugate concentration” value (oral 75 mg L-lysine-d-amphetamine, 48 h) was 0 ng/mL. For the same molecule, the “L-lysine-d-amphetamine intact conjugate concentration” value (oral 75 mg L-lysine-d-amphetamine, 72 h) was 0 ng/mL.
